By UniProt entry, the sequences of proteins in these tests, tags left out. Where a name states a change or a piece, a line headed by the entry shows the natural chain unless it says otherwise.
UniProt Q5ZEF1: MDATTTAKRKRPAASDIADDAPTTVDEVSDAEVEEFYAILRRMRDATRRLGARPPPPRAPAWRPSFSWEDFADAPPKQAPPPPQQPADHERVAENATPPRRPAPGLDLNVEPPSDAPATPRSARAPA
UniProt Q6L589: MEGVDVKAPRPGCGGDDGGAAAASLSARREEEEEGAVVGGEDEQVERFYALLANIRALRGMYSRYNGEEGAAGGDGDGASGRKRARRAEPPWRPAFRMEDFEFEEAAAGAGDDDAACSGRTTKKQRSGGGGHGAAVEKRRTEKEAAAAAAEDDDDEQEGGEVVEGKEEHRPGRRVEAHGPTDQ
UniProt B7F924: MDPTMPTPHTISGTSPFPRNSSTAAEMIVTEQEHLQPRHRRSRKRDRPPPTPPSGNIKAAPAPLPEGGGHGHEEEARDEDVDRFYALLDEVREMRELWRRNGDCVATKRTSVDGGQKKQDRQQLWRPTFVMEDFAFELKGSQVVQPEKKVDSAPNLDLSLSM

In PMC4094623:

Experiments:
NH1 (rice (Nipponbare)) = target: T1, NH1 (rice (Nipponbare)) (UniProt Q9FDY4); test: two-hybrid; LexA fusion (written as target) and B42AD fusion (written as binder) in yeast EGY48; beta-galactosidase on X-gal medium, blue colour graded +++ to –; at least three colonies
T1 sequence: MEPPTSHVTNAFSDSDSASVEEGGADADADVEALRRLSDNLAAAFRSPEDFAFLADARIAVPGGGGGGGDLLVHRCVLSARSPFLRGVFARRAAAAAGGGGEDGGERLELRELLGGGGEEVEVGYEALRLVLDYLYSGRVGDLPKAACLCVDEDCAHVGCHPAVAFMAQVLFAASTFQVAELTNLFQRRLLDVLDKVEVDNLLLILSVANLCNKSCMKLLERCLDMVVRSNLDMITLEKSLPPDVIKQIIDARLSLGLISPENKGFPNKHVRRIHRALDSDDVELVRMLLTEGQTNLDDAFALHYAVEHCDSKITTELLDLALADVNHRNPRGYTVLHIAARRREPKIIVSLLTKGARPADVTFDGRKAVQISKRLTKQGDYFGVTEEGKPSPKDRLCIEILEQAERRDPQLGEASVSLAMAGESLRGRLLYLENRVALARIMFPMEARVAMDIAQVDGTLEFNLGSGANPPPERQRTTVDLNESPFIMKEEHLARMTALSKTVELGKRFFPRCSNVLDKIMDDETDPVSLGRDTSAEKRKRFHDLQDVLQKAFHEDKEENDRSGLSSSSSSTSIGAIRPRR

NH2 (rice (Nipponbare)) = target: T2, NH2 (rice (Nipponbare)) (UniProt Q0JJ01); test: as above
T2 sequence: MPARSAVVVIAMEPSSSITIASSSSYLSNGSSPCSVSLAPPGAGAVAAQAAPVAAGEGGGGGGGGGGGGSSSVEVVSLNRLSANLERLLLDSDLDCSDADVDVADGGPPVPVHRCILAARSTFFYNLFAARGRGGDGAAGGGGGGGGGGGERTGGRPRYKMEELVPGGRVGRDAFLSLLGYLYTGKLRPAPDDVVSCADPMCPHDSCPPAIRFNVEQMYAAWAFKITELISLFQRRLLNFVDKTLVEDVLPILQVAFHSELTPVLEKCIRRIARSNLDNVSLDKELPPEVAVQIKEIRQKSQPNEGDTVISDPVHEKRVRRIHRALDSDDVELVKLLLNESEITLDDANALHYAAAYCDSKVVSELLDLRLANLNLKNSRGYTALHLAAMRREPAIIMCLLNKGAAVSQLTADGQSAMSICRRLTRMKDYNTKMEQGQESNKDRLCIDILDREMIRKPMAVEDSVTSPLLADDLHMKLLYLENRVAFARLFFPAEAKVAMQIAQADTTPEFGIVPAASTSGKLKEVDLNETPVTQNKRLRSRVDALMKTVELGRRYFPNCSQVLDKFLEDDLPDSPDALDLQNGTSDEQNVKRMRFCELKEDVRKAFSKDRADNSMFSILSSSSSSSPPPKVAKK

NH3 (rice (Nipponbare)) = target: T3, NH3 (rice (Nipponbare)) (UniProt Q75HA6); test: as above
T3 sequence: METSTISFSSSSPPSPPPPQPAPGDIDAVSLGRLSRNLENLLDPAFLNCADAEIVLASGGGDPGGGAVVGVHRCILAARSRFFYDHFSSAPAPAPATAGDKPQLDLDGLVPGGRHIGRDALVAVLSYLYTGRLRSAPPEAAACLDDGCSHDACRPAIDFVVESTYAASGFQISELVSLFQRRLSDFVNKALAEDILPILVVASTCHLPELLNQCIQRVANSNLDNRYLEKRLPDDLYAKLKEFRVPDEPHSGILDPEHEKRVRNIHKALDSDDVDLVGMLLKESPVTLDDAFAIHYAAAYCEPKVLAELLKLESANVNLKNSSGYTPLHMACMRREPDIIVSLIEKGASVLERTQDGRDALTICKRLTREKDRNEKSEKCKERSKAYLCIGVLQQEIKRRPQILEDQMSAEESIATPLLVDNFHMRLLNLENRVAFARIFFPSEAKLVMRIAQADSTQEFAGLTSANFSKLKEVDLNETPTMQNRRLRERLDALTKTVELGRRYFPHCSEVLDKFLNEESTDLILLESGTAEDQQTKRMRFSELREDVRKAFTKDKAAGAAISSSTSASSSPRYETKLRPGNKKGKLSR

[1] = target: T4, NH1 (split YFP fusion) (rice (Nipponbare)) (UniProt Q9FDY4); test: split reporter; split YFP in rice protoplasts, 5 ug of each plasmid, 24-36 hr after transfection, fluorescence graded +++ to –; the YFPN fusion is written as binder, the YFPC fusion as target
T4 sequence: T1 sequence

[2] = target: T5, NH3 (split YFP fusion) (rice (Nipponbare)) (UniProt Q75HA6); test: as above
T5 sequence: T3 sequence

[3] = target: T6, NH2 (split YFP fusion) (rice (Nipponbare)) (UniProt Q0JJ01); test: as above
T6 sequence: T2 sequence

binding (NH1 (rice (Nipponbare)))	binding (NH2 (rice (Nipponbare)))	binding (NH3 (rice (Nipponbare)))	binding [1]	binding [2]	binding [3]	Substance
binds	binds	binds				TGAL1 (rice (Nipponbare))
			binds	binds		rTGA2.3 (split YFP fusion) (rice (Nipponbare))
binds	binds	binds				Negative Regulator of Resistance (NRR) (from UniProt Q5ZEF1)
binds	binds	binds				rTGA2.2 (rice (Nipponbare))
			binds	binds		TGAL1 (split YFP fusion) (rice (Nipponbare))
			binds	binds		rTGA2.2 (split YFP fusion) (rice (Nipponbare))
binds	binds	binds				rTGA2.1 (rice (Nipponbare))
			binds	binds	no binding	TGAL4 (split YFP fusion) (rice (Nipponbare))
			binds	binds		TGAL11 (split YFP fusion) (rice (Nipponbare))
			binds	binds		NRR (split YFP fusion) (rice (Nipponbare))
			binds	binds		TGAL7 (split YFP fusion) (rice (Nipponbare))
binds	binds	binds				TGAL2 (rice (Nipponbare))
			binds	binds		TGAL8 (split YFP fusion) (rice (Nipponbare))
			binds	binds		RH1 (split YFP fusion) (rice (Nipponbare))
binds	binds	binds				TGAL4 (rice (Nipponbare))
binds	binds	binds				rLG2 (rice (Nipponbare))
			binds	binds		RH3 (split YFP fusion) (rice (Nipponbare))
binds	binds	binds				rTGA2.3 (rice (Nipponbare))
no binding	no binding	no binding				TGAL9 (rice (Nipponbare))
			binds	binds	no binding	rLG2 (split YFP fusion) (rice (Nipponbare))
			binds	binds	no binding	TGAL5 (split YFP fusion) (rice (Nipponbare))
			binds	binds	no binding	rTGA2.1 (split YFP fusion) (rice (Nipponbare))
			binds	binds	no binding	TGAL6 (split YFP fusion) (rice (Nipponbare))
			binds	binds		RH2 (split YFP fusion) (rice (Nipponbare))
binds	binds	binds				RH1 (from UniProt Q6L589)
binds	binds					TGAL6 (rice (Nipponbare))
			binds		no binding	TGAL9 (split YFP fusion) (rice (Nipponbare))
			binds	binds		TGAL2 (split YFP fusion) (rice (Nipponbare))
binds	binds	binds				TGAL11 (rice (Nipponbare))
binds	binds	binds				RH3 (from UniProt B7F924)

These are yes or no findings as the source states them, for the method shown. For some assays here: Binding calls can cover weak binding; strength is not graded here. For some assays here: Binding seen in cells or lysates may run through a third protein. For some assays here: Tags and fused reporters may be left off the sequences shown.
